Measurements reported in US20200171163A1.
Results are given in words; binding and its absence hold for the method and conditions named. Some binding calls cover weakened binding; strength is not graded here.

Tests used:
[1] = biological target: human CDH6 (full-length, on cells) (human) (UniProt P55285); assay: flow cytometry, MFI vs antibody concentration; 293α cells transiently transfected with hCDH6; PE anti-human IgG Fc
[2] = biological target: cynomolgus monkey CDH6 (on cells) (cynomolgus monkey); assay: flow cytometry, MFI vs antibody concentration; 293α cells transiently transfected with cynoCDH6; PE anti-human IgG Fc
[3] = biological target: human CDH6 (full-length, on cells) (human) (UniProt P55285); assay: flow cytometry; 293α cells transfected with full-length hCDH6 (open) vs untransfected control cells (shaded); APC anti-human IgG
[4] = biological target: human CDH6 (full-length, on cells) (human) (UniProt P55285); assay: competition flow cytometry on 786-O/hCDH6 cells; competitor: Alexa 488-labeled H01L02 at 5 nM; unlabeled antibody varied [lower panel]
[5] = biological target: T1, EC1 deletion mutant of human CDH6 (human) (UniProt P55285); assay: flow cytometry; 293α cells transfected with EC1-deleted hCDH6 (open) vs untransfected control cells (shaded); APC anti-human IgG
T1 sequence: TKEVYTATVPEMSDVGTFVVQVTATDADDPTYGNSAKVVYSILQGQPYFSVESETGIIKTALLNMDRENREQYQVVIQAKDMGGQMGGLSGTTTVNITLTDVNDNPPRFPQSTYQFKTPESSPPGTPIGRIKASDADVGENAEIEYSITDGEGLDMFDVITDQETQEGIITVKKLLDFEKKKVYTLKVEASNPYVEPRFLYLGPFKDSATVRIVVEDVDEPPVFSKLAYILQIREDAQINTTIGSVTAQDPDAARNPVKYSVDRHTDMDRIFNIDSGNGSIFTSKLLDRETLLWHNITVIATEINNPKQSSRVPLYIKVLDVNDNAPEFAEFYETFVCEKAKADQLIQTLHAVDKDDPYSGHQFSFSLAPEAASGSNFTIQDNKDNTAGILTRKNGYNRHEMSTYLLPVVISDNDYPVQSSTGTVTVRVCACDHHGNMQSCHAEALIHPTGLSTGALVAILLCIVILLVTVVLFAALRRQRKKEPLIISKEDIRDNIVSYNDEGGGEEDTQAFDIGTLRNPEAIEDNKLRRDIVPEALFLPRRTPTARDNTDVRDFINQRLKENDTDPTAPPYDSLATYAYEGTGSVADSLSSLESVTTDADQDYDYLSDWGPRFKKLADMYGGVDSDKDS

[6] = biological target: human CDH6 (full-length, on cells) (human) (UniProt P55285); assay: flow cytometry, transfected 293α cells
[7] = biological target: T1, EC1 deletion mutant of human CDH6 (human); assay: flow cytometry, transfected 293α cells
[8] = biological target: T2, EC4 deletion mutant of human CDH6 (human) (UniProt P55285); assay: flow cytometry, transfected 293α cells
T2 sequence: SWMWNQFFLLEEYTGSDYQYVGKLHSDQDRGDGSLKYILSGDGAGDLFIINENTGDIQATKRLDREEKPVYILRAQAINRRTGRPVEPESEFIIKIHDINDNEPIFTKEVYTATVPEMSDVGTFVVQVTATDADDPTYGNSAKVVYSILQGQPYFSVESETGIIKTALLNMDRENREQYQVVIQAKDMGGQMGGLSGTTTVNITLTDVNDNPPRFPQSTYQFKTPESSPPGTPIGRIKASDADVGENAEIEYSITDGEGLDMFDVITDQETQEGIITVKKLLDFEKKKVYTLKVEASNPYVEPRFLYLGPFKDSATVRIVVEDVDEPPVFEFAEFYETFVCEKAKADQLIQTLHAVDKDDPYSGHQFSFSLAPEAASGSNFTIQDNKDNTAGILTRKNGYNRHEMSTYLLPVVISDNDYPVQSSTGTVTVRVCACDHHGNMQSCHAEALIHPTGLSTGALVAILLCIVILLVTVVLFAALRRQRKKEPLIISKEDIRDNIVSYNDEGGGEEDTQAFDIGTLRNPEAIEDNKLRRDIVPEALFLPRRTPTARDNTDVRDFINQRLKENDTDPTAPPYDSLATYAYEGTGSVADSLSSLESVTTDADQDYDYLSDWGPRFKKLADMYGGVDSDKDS

[9] = biological target: T3, EC2 deletion mutant of human CDH6 (human) (UniProt P55285); assay: flow cytometry, transfected 293α cells
T3 sequence: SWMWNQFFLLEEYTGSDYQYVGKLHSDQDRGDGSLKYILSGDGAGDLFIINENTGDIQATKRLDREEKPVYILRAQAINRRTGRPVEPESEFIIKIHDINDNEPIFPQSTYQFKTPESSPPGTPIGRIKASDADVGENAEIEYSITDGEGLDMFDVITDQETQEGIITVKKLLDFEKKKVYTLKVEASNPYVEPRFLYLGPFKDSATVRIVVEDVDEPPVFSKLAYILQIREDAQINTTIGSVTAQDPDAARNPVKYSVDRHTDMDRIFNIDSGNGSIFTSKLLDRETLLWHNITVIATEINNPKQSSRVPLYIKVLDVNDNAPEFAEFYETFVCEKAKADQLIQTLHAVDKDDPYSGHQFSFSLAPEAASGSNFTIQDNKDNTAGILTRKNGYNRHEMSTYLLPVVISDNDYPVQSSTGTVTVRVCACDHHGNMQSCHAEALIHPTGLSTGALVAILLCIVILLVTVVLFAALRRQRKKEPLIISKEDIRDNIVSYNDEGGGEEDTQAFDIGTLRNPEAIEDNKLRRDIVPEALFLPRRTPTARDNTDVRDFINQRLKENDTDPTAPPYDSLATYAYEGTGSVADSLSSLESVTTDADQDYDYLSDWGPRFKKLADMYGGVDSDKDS

[10] = biological target: T4, EC5 deletion mutant of human CDH6 (human) (UniProt P55285); assay: flow cytometry, transfected 293α cells
T4 sequence: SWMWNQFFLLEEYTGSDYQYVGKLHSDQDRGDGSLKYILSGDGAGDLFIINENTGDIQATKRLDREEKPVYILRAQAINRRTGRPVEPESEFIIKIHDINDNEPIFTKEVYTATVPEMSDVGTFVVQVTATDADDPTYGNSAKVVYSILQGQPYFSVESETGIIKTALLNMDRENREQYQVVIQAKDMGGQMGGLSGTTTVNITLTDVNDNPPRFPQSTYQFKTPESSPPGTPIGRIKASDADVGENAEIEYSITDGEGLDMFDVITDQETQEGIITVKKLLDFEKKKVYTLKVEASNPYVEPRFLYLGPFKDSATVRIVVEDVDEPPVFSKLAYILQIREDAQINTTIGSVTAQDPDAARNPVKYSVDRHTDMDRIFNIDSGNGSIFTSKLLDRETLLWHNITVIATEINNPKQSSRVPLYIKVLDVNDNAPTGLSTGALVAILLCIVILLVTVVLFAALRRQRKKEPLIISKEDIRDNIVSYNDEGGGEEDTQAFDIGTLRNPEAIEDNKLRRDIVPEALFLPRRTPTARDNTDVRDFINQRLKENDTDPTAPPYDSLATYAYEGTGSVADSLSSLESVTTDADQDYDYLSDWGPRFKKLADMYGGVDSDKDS

[11] = biological target: T2, EC4 deletion mutant of human CDH6 (human); assay: flow cytometry; 293α cells transfected with EC4-deleted hCDH6 (open) vs untransfected control cells (shaded); APC anti-human IgG
[12] = biological target: human CDH6 (full-length, on cells) (human) (UniProt P55285); assay: flow cytometry, transfected 293α cells, antibody dilution series
[13] = biological target: cynomolgus monkey CDH6 (on cells) (cynomolgus monkey); assay: as above
[14] = biological target: T3, EC2 deletion mutant of human CDH6 (human); assay: flow cytometry; 293α cells transfected with EC2-deleted hCDH6 (open) vs untransfected control cells (shaded); APC anti-human IgG
[15] = biological target: T4, EC5 deletion mutant of human CDH6 (human); assay: flow cytometry; 293α cells transfected with EC5-deleted hCDH6 (open) vs untransfected control cells (shaded); APC anti-human IgG
[16] = biological target: T5, EC3 deletion mutant of human CDH6 (human) (UniProt P55285); assay: flow cytometry; 293α cells transfected with EC3-deleted hCDH6 (open) vs untransfected control cells (shaded); APC anti-human IgG
T5 sequence: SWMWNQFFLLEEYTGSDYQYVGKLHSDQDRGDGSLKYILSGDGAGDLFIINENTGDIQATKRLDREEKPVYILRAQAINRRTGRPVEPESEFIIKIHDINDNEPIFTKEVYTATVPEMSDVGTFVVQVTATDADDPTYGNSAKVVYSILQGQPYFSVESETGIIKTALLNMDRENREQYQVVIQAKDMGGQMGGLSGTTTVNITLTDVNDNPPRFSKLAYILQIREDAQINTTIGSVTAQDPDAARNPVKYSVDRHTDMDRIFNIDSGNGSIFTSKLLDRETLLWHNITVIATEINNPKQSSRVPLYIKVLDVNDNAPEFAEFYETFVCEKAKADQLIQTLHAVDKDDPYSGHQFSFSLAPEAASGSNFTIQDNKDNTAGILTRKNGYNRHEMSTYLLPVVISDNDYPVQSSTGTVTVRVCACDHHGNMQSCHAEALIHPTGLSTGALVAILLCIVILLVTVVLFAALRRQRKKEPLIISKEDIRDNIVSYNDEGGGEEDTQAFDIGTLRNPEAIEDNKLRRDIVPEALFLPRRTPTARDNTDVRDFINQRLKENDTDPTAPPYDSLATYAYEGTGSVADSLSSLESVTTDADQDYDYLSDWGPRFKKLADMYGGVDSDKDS

[17] = biological target: T5, EC3 deletion mutant of human CDH6 (human); assay: flow cytometry, transfected 293α cells

Measured: binding

B1: H01L02 antibody (antibody, human IgG1, kappa, V domains shown)
VH: EVQLVQSGAEVKKPGASVKVSCKASGYTFTRNFMHWVRQAPGQGLEWMGWIYPGDGETEYAQKFQGRVTITADTSTSTAYMELSSLRSEDTAVYYCARGVYGGFAGGYFDFWGQGTLVTVSS
VL: DIQMTQSPSSLSASVGDRVTITCKASQNIYKNLAWYQQKPGKAPKLLIYDANTLQTGVPSRFSGSGSGSDFTLTISSLQPEDFATYFCQQYYSGWAFGQGTKVEIKR
not listed: [16] | [17]
binds: all other assays above

B2: anti-CDH6 antibody NOV0712 (antibody, V domains shown)
VH: QVQLLESGGGLVQPGGSLRLSCAASGFTFSSHGMHWVRQAPGKGLEWVSVISGSGSNTGYADSVKGRFTISRDNSKNTLYLQMNSLRAEDTAVYYCARQWGSYAFDSWGQGTLVTVSS
VL: DIQMTQSPSSLSASVGDRVTITCRASQSISSYLNWYQQKPGKAPKLLIYAVSTLQSGVPSRFSGSGSGTDFTLTISSLQPEDFATYYCQQSGTFPPTTFGQGTKVEIKR
binds: [16] | [5] | [7] | [8] | [17] | [9] | [11] | [14]

B3: H04L02 antibody (antibody, human IgG1, kappa, V domains shown)
VH: QVQLVQSGAEVKKPGASVKVSCKASGYTFTRNFMHWIRQAPGQGLEWMGWIYPGDGETEYAQKFQGRVTLTADRSTSTAYMELSSLRSEDTAVYYCARGVYGGFAGGYFDFWGQGTLVTVSS
VL: DIQMTQSPSSLSASVGDRVTITCKASQNIYKNLAWYQQKPGKAPKLLIYDANTLQTGVPSRFSGSGSGSDFTLTISSLQPEDFATYFCQQYYSGWAFGQGTKVEIKR
binds: [5] | [7] | [8] | [9] | [10] | [11] | [14] | [15]
